Reference: PubChem BioAssay AID1259254 (NCATS, 2017)
This is a random part of about 59,000 deposited reagents. In the full data, about 1,550 (2.6%) were called active. 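G2 share is only a proxy for re-replication; each gene was hit by three separate siRNAs, and active genes were retested.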 A number with no mark means an inactive call. The numbers tell different reagents against one gene apart. Not all columns of the deposit are shown. Not given: the amount of reagent.

Assay: 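Finding genes that stop cells copying their DNA twice in one cycle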 (primary screen)
Cells: human HCT116 colorectal cancer cells
Reagents: single siRNA against human genes
Time to read-out: 3 days
Read-out: 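Nuclei stained with Hoechst and imaged; cell-cycle phase assigned by DNA content; G2 share scaled per plate, non-targeting siRNA 0%, GMNN siRNA 100%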
Scale: G2 robust z-score and G2 cells, % of GMNN control: higher = more G2 cells, more excess DNA replication
Active means: 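Active siRNAs have a G2 robust z of 5 or more median absolute deviations over the median, which in these data means about 38% or higher of GMNN control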

gene,reagent no.,G2 robust z-score,"G2 cells, % of GMNN control"
BST2 (bone marrow stromal cell antigen 2),1,2.71,22
BST2 (bone marrow stromal cell antigen 2),2,-1.32,-6.32
BST2 (bone marrow stromal cell antigen 2),3,2.22,18.6
NSG1 (neuronal vesicle trafficking associated 1),1,1.46,13.2
NSG1 (neuronal vesicle trafficking associated 1),2,1.68,14.8
NSG1 (neuronal vesicle trafficking associated 1),3,0.455,6.17
RNASE10 (ribonuclease A family member 10 (inactive)),1,3.54,27.9
RNASE10 (ribonuclease A family member 10 (inactive)),2,0.953,9.68
RNASE10 (ribonuclease A family member 10 (inactive)),3,-1.12,-4.92
AKIRIN1 (akirin 1),1,-0.656,-1.65
AKIRIN1 (akirin 1),2,0.248,4.71
AKIRIN1 (akirin 1),3,1.33,12.3
CAPN1-AS1 (CAPN1 antisense RNA 1),1,-0.126,2.08
CAPN1-AS1 (CAPN1 antisense RNA 1),2,4.43,34.1
CAPN1-AS1 (CAPN1 antisense RNA 1),3,-0.792,-2.6
CADM3 (cell adhesion molecule 3),1,1.9,16.3
CADM3 (cell adhesion molecule 3),2,0.242,4.67
CADM3 (cell adhesion molecule 3),3,0.388,5.7
ATG4A (autophagy related 4A cysteine peptidase),1,-1.07,-4.53
ATG4A (autophagy related 4A cysteine peptidase),2,-0.729,-2.16
ATG4A (autophagy related 4A cysteine peptidase),3,-0.629,-1.46
POU2F1 (POU class 2 homeobox 1),1,-0.0425,2.67
POU2F1 (POU class 2 homeobox 1),2,1.12,10.9
POU2F1 (POU class 2 homeobox 1),3,0.0721,3.47
ZBED1P1 (zinc finger BED-type containing 1 pseudogene 1),1,-0.975,-3.89
ZBED1P1 (zinc finger BED-type containing 1 pseudogene 1),2,1.88,16.2
ZBED1P1 (zinc finger BED-type containing 1 pseudogene 1),3,-1.27,-5.96
KIAA0930,1,-0.0181,2.84
KIAA0930,2,-0.511,-0.628
KIAA0930,3,1.3,12.1
GRB7 (growth factor receptor bound protein 7),1,-1.09,-4.68
GRB7 (growth factor receptor bound protein 7),2,-1.17,-5.23
GRB7 (growth factor receptor bound protein 7),3,-1.19,-5.4
ADAMTS14 (ADAM metallopeptidase with thrombospondin type 1 motif 14),1,2.98,24
ADAMTS14 (ADAM metallopeptidase with thrombospondin type 1 motif 14),2,0.373,5.59
ADAMTS14 (ADAM metallopeptidase with thrombospondin type 1 motif 14),3,-0.515,-0.653
G6PD (glucose-6-phosphate dehydrogenase),1,-0.804,-2.69
G6PD (glucose-6-phosphate dehydrogenase),2,0.102,3.69
G6PD (glucose-6-phosphate dehydrogenase),3,2.48,20.4
ACTN3 (actinin alpha 3),1,-0.999,-4.06
ACTN3 (actinin alpha 3),2,0.355,5.47
ACTN3 (actinin alpha 3),3,-1.29,-6.12

An excerpt from the list above, as a working copy:
gene,reagent no.,G2 robust z-score,"G2 cells, % of GMNN control"
POU2F1 (POU class 2 homeobox 1),1,-0.0425,2.67
POU2F1 (POU class 2 homeobox 1),2,1.12,10.9
POU2F1 (POU class 2 homeobox 1),3,0.0721,3.47
ZBED1P1 (zinc finger BED-type containing 1 pseudogene 1),1,-0.975,-3.89
ZBED1P1 (zinc finger BED-type containing 1 pseudogene 1),2,1.88,16.2
ZBED1P1 (zinc finger BED-type containing 1 pseudogene 1),3,-1.27,-5.96
KIAA0930,1,-0.0181,2.84
KIAA0930,2,-0.511,-0.628
KIAA0930,3,1.3,12.1
GRB7 (growth factor receptor bound protein 7),1,-1.09,-4.68
GRB7 (growth factor receptor bound protein 7),2,-1.17,-5.23

The results go on.
gene,reagent no.,G2 robust z-score,"G2 cells, % of GMNN control"
"EPM2A (EPM2A glucan phosphatase, laforin)",1,-0.376,0.321
"EPM2A (EPM2A glucan phosphatase, laforin)",2,-0.556,-0.946
"EPM2A (EPM2A glucan phosphatase, laforin)",3,1.84,15.9
SERF1B (small EDRK-rich factor 1B),1,0.0389,3.24
SERF1B (small EDRK-rich factor 1B),2,-0.8,-2.66
SERF1B (small EDRK-rich factor 1B),3,-0.574,-1.07
DNMBP (dynamin binding protein),1,-0.967,-3.84
DNMBP (dynamin binding protein),2,1.51,13.6
DNMBP (dynamin binding protein),3,-0.0334,2.73
FGFBP1 (fibroblast growth factor binding protein 1),1,-0.757,-2.36
FGFBP1 (fibroblast growth factor binding protein 1),2,-0.703,-1.98
FGFBP1 (fibroblast growth factor binding protein 1),3,-0.121,2.11
PPP3CA (protein phosphatase 3 catalytic subunit alpha),1,-0.515,-0.658
PPP3CA (protein phosphatase 3 catalytic subunit alpha),2,-0.311,0.778
PPP3CA (protein phosphatase 3 catalytic subunit alpha),3,-0.524,-0.721
ZBTB7A (zinc finger and BTB domain containing 7A),1,-1.07,-4.58
ZBTB7A (zinc finger and BTB domain containing 7A),2,-0.298,0.869
ZBTB7A (zinc finger and BTB domain containing 7A),3,-0.245,1.24
ZNF71 (zinc finger protein 71),1,0.993,9.96
ZNF71 (zinc finger protein 71),2,-1.26,-5.9
ZNF71 (zinc finger protein 71),3,-0.379,0.298
NSD1 (nuclear receptor binding SET domain protein 1),1,-0.641,-1.54
NSD1 (nuclear receptor binding SET domain protein 1),2,-0.244,1.25
NSD1 (nuclear receptor binding SET domain protein 1),3,8.89 (active),65.5
LINC01433 (long independently transcribed non-coding RNA 1433),1,-0.346,0.53
LINC01433 (long independently transcribed non-coding RNA 1433),2,-1.08,-4.64
LINC01433 (long independently transcribed non-coding RNA 1433),3,2.36,19.5
